Reference: publication PMC3737224
Results are given in words; binding and its absence hold for the method and conditions named. Some binding calls cover weakened binding; strength is not graded here.

The chains behind the UniProt entries cited, without tags or fusion partners.
UniProt Q96GD4: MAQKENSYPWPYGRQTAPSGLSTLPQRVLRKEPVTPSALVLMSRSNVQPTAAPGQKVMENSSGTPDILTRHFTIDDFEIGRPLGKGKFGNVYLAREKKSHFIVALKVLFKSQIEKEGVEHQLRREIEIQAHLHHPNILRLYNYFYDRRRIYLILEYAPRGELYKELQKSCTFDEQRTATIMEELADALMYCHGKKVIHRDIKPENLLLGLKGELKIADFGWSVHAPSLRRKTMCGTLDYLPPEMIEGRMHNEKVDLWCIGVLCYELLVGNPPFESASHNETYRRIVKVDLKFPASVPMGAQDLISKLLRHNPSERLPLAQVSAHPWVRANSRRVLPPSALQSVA
UniProt O14950: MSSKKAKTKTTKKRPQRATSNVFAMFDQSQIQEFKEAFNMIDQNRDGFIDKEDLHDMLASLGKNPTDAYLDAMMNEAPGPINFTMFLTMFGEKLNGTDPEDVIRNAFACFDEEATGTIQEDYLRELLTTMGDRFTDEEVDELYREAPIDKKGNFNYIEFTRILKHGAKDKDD

Target: GST-Aurora B (UniProt Q96GD4)
Assay: pull-down; GST-Aurora B or GST on Glutathione-Sepharose (5 µL) incubated with 2-54 µg 2P-MRLC for 1 h at 4°C in binding buffer (45 mM HEPES-NaOH pH 7.2, 139 mM NaCl, 1 mM MgCl2, 0.3 mM CaCl2, 0.1% Triton X-100, 6.8 µg/mL CaM) with 14 µg/mL MLCK; bound MRLC detected by western blot; both purified

binding: binds
Substance: diphosphorylated MRLC (recombinant MRLC2, phosphorylated in vitro) (from UniProt O14950 1-172)
